Measured values as given in patent US20250221936A1, “ENGINEERED HEMICHANNELS, ENGINEERED VESICLES, AND USES THEREOF” (VIRGINIA TECH INTELLECTUAL PROPERTIES, INC., priority 2018, published 2025).
These are yes or no findings as the source states them, for the method shown. Some results given as binding are weak or reduced against the parent protein; the word gives no strength.

Amino acid sequences for entries named in this document (tags omitted). Residues count along the entry.
UniProt P08050, residues 255-382: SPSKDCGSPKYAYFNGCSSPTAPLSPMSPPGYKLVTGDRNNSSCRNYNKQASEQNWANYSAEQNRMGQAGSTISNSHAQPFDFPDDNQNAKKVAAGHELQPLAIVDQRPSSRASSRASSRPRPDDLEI

Tests used:
[1] = target: Cx43 CT (Connexin 43 carboxyl terminus, amino acids 255 to 382) (UniProt P08050); test: protein thermal shift assay of Cx43 CT
[2] = target: Cx43 CT (Connexin 43 carboxyl terminus, amino acids 255 to 382) (UniProt P08050); test: protein thermal shift assay
[3] = target: T1, GST-Cx43 CT (Rattus norvegicus, UniProt P08050); test: EDC cross-linking of the kinase reaction mixture, SDS-PAGE and MS/MS
[4] = target: Cx43 CT (Connexin 43 carboxyl terminus, amino acids 255 to 382) (UniProt P08050); test: SPR, biotin-alpha CT1 on streptavidin chip, Cx43 CT analyte 0.5 to 15 µM
[5] = target: Cx43 CT (Connexin 43 carboxyl terminus, amino acids 255 to 382) (UniProt P08050); test: summary sentence of the kinase assay section
[6] = target: T1, GST-Cx43 CT; test: EDC cross-linking of kinase reaction mixtures with GST-Cx43 CT, Coomassie gel and MS/MS
[7] = target: Cx43 CT (Connexin 43 carboxyl terminus, amino acids 255 to 382) (UniProt P08050); test: summary grade of interaction with Cx43 CT (Table 1)
[8] = target: T1, GST-Cx43 CT; test: EDC cross-linking blots, alpha CT1 at 5, 10 and 25 µM
[9] = target: Cx43 CT (Connexin 43 carboxyl terminus, amino acids 255 to 382) (UniProt P08050); test: summary sentence in Example 21
[10] = target: Cx43 CT (Connexin 43 carboxyl terminus, amino acids 255 to 382) (UniProt P08050); test: summary of the biochemical characterizations
[11] = target: Cx43 CT (Connexin 43 carboxyl terminus, amino acids 255 to 382) (UniProt P08050); test: SPR, captured aCT1, Cx43 CT analyte at 100 uM

Measured: binding

RQPKIWFPNRRKPWKKRPRPDDLEI (biotin tag (biotin-alpha CT1) in the cross-linking, SPR and kinase assays) [alpha CT1]
binds: all assays above

RQPKIWFPNRRKPWKKRPRPDDLE (biotin tag in cross-linking and kinase assays) [alpha CT1-I]
binds: [1] | [5] | [7] | [10]

RPRPDDLEI (biotin tag in the kinase assay) [alpha CT11]
binds: [1] | [5] | [7]
